Test in all cases: cell viability relative to vehicle control; higher = less cytotoxic
Common to all, as to details: 10 µM

Assay [1] relates to K562. The gist of the method:
(§1)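 CRISPR-edited SRSF2 P95 mutant and isogenic wild-type clones of four leukaemia lines were screened against Selleck bioactive, kinase and epigenetic probe libraries, with identity-inconsistent compounds removed. Compounds were acoustically dispensed into 384-well plates at a single 10 µM dose, with 2000 cells in 50 µL medium per well. After 48 h, supernatant was removed and CellTiter-Glo luminescence was read. Viability was expressed as percent of the on-plate DMSO vehicle control, analysed in Genedata Screener.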

Assay [2] has as its system MARIMO. The gist of the method: as §1
Assay [3] deals with MOLM14. The gist of the method:
as §1

Assay [4] relates to OCI-AML2. The method, boiled down:
as §1

Where “and” joins values, the source holds several entries; their conditions need not be identical. Equal entries are not always repeated. Most of the strong results are listed elsewhere, so they are rarer here than in the full data.

This passage reports cell viability results from the supplement of paper PMC10981050.

Consider `Cc1c(C(=O)NN2CCCCC2)nn(-c2ccc(Cl)cc2Cl)c1-c1ccc(I)cc1`, for which the cell viability in assay [1] (SRSF2 genotype: SRSF2 P95H/wt) is 81.2% and 81.6%; in assay [1] (SRSF2 genotype: SRSF2 wt/wt) it was 74.8%; in assay [2] (SRSF2 genotype: SRSF2 P95H/wt), 85.6%; in assay [2] (SRSF2 genotype: SRSF2 wt/wt) it was 95.8%; in assay [3] (SRSF2 genotype: SRSF2 P95H/wt) it was 75.9%; in assay [3] (SRSF2 genotype: SRSF2 wt/wt), 83.5%. Moreover, the cell viability in assay [4] (SRSF2 genotype: P95H/wt) was 71%; in assay [4] (SRSF2 genotype: wt/wt), 82.1%.
